B1: tRNA (parent)
chain: GUUCCGUUGGCGUAAUGGUAACGCGUCUCCCUCCUAAGGAGAAGACUGCGGGUUCGAGUCCCGUACGGAACG

This sample is rich in variants without activity.

The data set covers variants of B1. The data set can be described thus: yeast fitness relative to wild type (ratio to wild type); higher = fitter; tRNA-Arg(CCU), competitive growth, 37 C, YPD. Put shortly: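 For this measurement, the tRNA-Arg(CCU) gene was varied by chemical synthesis at a 3% per-site mutation rate across 69 sites, and each variant was placed at the native genomic locus in Saccharomyces cerevisiae. The pooled strains went through a 24-hour competition in YPD at 37°C in six parallel replicates, with amplicons from start and end populations read by 100-nucleotide paired-end sequencing. Darwinian fitness relative to wild type followed from the change in each genotype's frequency. Genotypes needed ≥ 100 starting reads, and estimates < 0.5 were set to 0.5.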
Take C4G U8A C49U: the yeast fitness is no more than 0.5.
As for A20G A36U C49G, the yeast fitness is no more than 0.5.
For the variant A14G A20G U28C G68C, the yeast fitness is no more than 0.5.
Next, C11A A14G G18A C24U G41C C55G: no more than 0.5; C27U C29G A37C: no more than 0.5; U16C A21U: 0.756.
Next, A14G C27U U28G G58C G63C: no more than 0.5; C5U G17C C29A C46G G56A: no more than 0.5; C29U C31U U59C C66U: no more than 0.5.
For the variant G6A U13C C62A, the yeast fitness is no more than 0.5.
U3A U32G G63C C66U: the yeast fitness is no more than 0.5.
Consider C5G G17C C31U G44A C46A, for which the yeast fitness was no more than 0.5.
Next, A14C C33A C46A: no more than 0.5; C27A C29G C30G G51A: no more than 0.5; U13C A40C G44A: no more than 0.5.
Turning to U32C G44A A57G, the yeast fitness is no more than 0.5.
With C5U G12C A21C C24A G41C A65U, the yeast fitness was no more than 0.5.
For the variant C4G C11A U28G U47G C49G C55G, the yeast fitness is no more than 0.5.
For the variant A15G U19C G51C C55U, the yeast fitness is 0.582.
Turning to G6A C55U G63C, the yeast fitness is no more than 0.5.
Consider C30U C31U A36U C55A A65U, for which the yeast fitness was no more than 0.5.
C5U G18C C29U: the yeast fitness is no more than 0.5.
Turning to C22U C55G, the yeast fitness was 0.578.
U2G C5A U19A A65U: the yeast fitness is no more than 0.5.
On to U2C U35A, for which the yeast fitness was 0.62.
For U13G C33G C61G, the yeast fitness is no more than 0.5.
With G12A A14G A15G C27U G38A, the yeast fitness is no more than 0.5.
U8C G9U C27A: the yeast fitness is no more than 0.5.
Next, A36C G52A C61U: no more than 0.5; C22G U28A C31G G39A C55A G68C: no more than 0.5; U3G C24U C31U A69U: 0.839.
Next, U2G U3A C5U U7C U8A A20C U35C A37U A45G A57C: no more than 0.5; C29G U35C A57U: no more than 0.5; A14G A21C A69U: no more than 0.5.
With C22U A42G C49U U64A, the yeast fitness was no more than 0.5.
Next, C33U C66U: 0.651.
For the variant U8A G18C C24A U32C U64C A65G, the yeast fitness is no more than 0.5.
With C33U A36G G50A, the yeast fitness was no more than 0.5.
Regarding A20C C22U C34U U35G A65C, the yeast fitness was no more than 0.5.
On to C24A A40G C61U G68A, for which the yeast fitness is no more than 0.5.
Next, A15U C33U A65C G68C: no more than 0.5; U8C C22G C29U A43U C46A: no more than 0.5.
Next, C34G C55U G63A G67A: no more than 0.5; G9A C62G: 0.896; U19G A40C: 0.732.
Next, U16A C30A C55U A70C: no more than 0.5; G39C A45G U53C: no more than 0.5; U3G C22A G50A U64C: no more than 0.5.
For the variant C5G U7G A57G, the yeast fitness was no more than 0.5.
As to C11A A21G C34U A37G, the yeast fitness is no more than 0.5.
Consider C24G U53G A57G, for which the yeast fitness amounted to 0.545.
G12C A14C U54C G68A: the yeast fitness was no more than 0.5.
With C4A A14U C30A G67C, the yeast fitness was no more than 0.5.
Consider U26G C33G U35A C55U A65C, for which the yeast fitness was no more than 0.5.
As for C4U C27A C31U C60G, the yeast fitness is no more than 0.5.
Turning to C24G G52A C66U, the yeast fitness is no more than 0.5.
Next, G10A A40G C55U: no more than 0.5; A20C C29U C49G U59C C62G: no more than 0.5; U35A G39C C46A: no more than 0.5.
Regarding U26C A70G, the yeast fitness was 0.915.
With C5G U32A G48C C62U, the yeast fitness is no more than 0.5.
Next, C5U C27G C33G A42C C61G: no more than 0.5.
On to G12C A14U C29U, for which the yeast fitness is no more than 0.5.
In the case of U47G G50C C66A, the yeast fitness was no more than 0.5.
As to C5G C34G C62G G63A, the yeast fitness is no more than 0.5.
Next, U7C A69C: 0.921; C11G C29A U35C A43C: no more than 0.5.
Next, G17C C27U U35C A65C: no more than 0.5; U3A C31U A36C G50A G58A: no more than 0.5; C11U A45G C49A: 0.567.
With U16C G68C, the yeast fitness stood at 0.834.
Next, G6A C11A U19A: 0.53.
Next, C5G C49G A65C: no more than 0.5.
Next, U7C C30U C34A C62U A70U: no more than 0.5.
As for C4A C27G C55U, the yeast fitness was no more than 0.5.
Consider C46A U59C, for which the yeast fitness amounted to 0.898.
For C4U C29U C31A C55U A57C, the yeast fitness was no more than 0.5.
In the case of A15C U26C C30U, the yeast fitness was no more than 0.5.
Next, A37U A42G C62U: no more than 0.5.
Next, A14U C22G A57C G63C C66U: 0.578.
Turning to U47A A57G, the yeast fitness was 0.923.
Next, G10C U54C: no more than 0.5; U19C C60G A69U: no more than 0.5; C5G G10C A37U G38A G58C: no more than 0.5.

Values taken from the RNAGym collection of RNA variant scans (doi:10.1126/science.aae0568).
